The series deals with GNS166 cells. In words: Label-free proteomics differential expression. Conditions: GNS166, 5 µM, 48 h; p < 0.05. It counts as cell-based, human. The protocol:
Proteomic studies were performed by the Proteomics Facility of the CIC bioGUNE by label-free relative quantification on nLC MS/MS. […] In both approaches, the top 20 enriched terms were plotted and the pathways were clustered using divisive hierarchical clustering based on pairwise Jaccard distances.

Experimental findings from publication PMC11971462, “Generation and validation of a novel multitarget small molecule in glioblastoma” (Cell Death & Disease, 2025) are described below.

For `C#CCN(Cc1cc2cc(OCCCN3CCCCC3)ccc2n1S(=O)(=O)c1ccccc1)C(=O)CCCCCCC(=O)NO` [DDI199], the “Number of downregulated proteins (proteomics)” value is 391 and the “Number of upregulated proteins (proteomics)” value is given as 217.
